{"source": "patent US6861508", "about": "(INSTITUT NATIONAL DE LA SANTE ET DE LA RECHERCHE MEDICALE, dated 2005)", "binders": {"B1": {"name": "GST-hTAFII28 (printed hTAFn28) (other, human, UniProt Q15544 1-211, looked up)", "chain": "MDDAHESPSDKGGETGESDETAAVPGDPGATDTDGIPEETDGDADVDLKEAAAEEGELESQDVSDLTTVEREDSSLLNPAAKKLKIDTKEKKEKKQKVDEDEIQKMQILVSSFSEEQLNRYEMYRRSAFPKAAIKRLIQSITGTSVSQNVVIAMSGISKVFVGEVVEEALDVCEKWGEMPPLQPKHMREAVRRLKSKGQIPNSKHKKIIFF", "notes": "not shown: glutathione-S-transferase (GST)"}}, "molecular_target": "T1, (His)6-TIF2.1, E. coli-expressed purified recombinant TIF2.1 (human, UniProt Q15596 624-1287)", "T1 construct": "also called His-tagged TIF2.1; purified TIF2.1 protein; not shown: (His)6 tag of pET15b", "T1 sequence": "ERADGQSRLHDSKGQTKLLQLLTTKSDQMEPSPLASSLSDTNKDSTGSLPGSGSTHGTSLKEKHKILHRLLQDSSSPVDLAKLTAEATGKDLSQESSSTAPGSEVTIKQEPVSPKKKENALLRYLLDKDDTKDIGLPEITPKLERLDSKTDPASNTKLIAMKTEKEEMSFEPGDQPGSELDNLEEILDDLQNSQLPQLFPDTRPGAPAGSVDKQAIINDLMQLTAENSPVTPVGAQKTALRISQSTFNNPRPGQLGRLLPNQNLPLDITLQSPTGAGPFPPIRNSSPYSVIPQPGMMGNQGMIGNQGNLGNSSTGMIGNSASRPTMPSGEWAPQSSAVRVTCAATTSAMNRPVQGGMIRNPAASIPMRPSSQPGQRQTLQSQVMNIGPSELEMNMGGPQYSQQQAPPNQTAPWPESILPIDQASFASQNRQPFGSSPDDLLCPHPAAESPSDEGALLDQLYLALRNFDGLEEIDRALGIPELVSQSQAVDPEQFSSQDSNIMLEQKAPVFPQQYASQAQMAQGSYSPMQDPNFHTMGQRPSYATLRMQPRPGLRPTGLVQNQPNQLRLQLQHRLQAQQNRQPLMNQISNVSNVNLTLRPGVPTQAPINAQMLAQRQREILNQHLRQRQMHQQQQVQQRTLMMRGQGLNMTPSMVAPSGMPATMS", "assay": "GST interaction assay (not shown)"}
{"binder": "B1", "values": [{"measurement": "binding result", "value": "no binding"}]}
